Assay results taken from patent US20170129926A1 (ABCLON, published 2017).
Positions count from the first letter of the chain named.

By UniProt entry, the sequences of proteins in these tests, tags left out. Residues count along the entry.
UniProt P05231, 30-212 limits assumed: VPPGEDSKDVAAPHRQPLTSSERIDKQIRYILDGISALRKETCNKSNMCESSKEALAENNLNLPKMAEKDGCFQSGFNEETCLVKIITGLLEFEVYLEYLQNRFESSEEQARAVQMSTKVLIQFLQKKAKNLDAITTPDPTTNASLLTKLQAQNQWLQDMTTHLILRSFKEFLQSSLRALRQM

B1: Z14620 (designed binder)
chain: AQHDEALEVDAKYAKEEYEAWVEIHKLPNLTIDQMAAFITKLFDDPSQSSELLSEAKKLNDSQAPKVDYVLAEAKVLANRELDKYGVSDYYKNLINNAKTVEGVKALIDEILAALPYVPG
notes: domain: GA3; periplasmic ABD fusion
B2: Z14630 (designed binder)
chain: B1 chain with Y18K, E19F, V22W, I32V, M35V
notes: as for B1
B3: Z14634 (designed binder)
chain: B1 chain with E19H, V22Y, K26L
notes: as for B1
B4: Z14645 (designed binder)
chain: B1 chain with Y18K, E19D, V22Y, K26L, I32V, D33E, M35I
notes: as for B1
B5: Z14651 (designed binder)
chain: B1 chain with Y18K, E19H, V22H, K26I, I32V, D33E
notes: as for B1
B6: Z14662 (designed binder)
chain: B1 chain with Y18K, E19A, V22F, K26A, I32V, D33E, M35V
notes: as for B1
B7: Z14673 (designed binder)
chain: B1 chain with E19H, V22M, K26L, I32V, D33S
notes: as for B1
B8: Z14700 (designed binder)
chain: B1 chain with Y18R, E19H, V22F, I32V
notes: as for B1
B9: Z14706 (designed binder)
chain: B1 chain with Y18A, E19F, V22K, K26L
notes: as for B1
B10: Z14710 (designed binder)
chain: B1 chain with V22Y, K26L, I32V, D33S, M35I
notes: as for B1
B11: Z14712 (designed binder)
chain: B1 chain with E19L, V22N, I32V
notes: as for B1
B12: Z14720 (designed binder)
chain: B1 chain with E19Y, V22W, I32V
notes: as for B1
B13: Z14722 (designed binder)
chain: B1 chain with Y18A, E19V, V22K, K26I, I32V, D33S
notes: as for B1
B14: Z14731 (designed binder)
chain: B1 chain with Y18K, E19A, V22Y, K26L, D33E, T40S
notes: as for B1
B15: Z14746 (designed binder)
chain: B1 chain with Y18R, E19A, V22T, K26L, I32V, D33E
notes: as for B1
B16: Z14765 (designed binder)
chain: B1 chain with Y18R, E19M, V22Y, K26T, I32V, D33E
notes: as for B1
B17: Z14767 (designed binder)
chain: B1 chain with Y18H, E19H, V22R, K26L, I32V
notes: as for B1
B18: Z14782 (designed binder)
chain: B1 chain with Y18A, E19K, V22M, K26L
notes: as for B1
B19: Z14783 (designed binder)
chain: B1 chain with Y18K, E19A, V22Y, K26L, I32V, M35I
notes: as for B1
B20: Z14784 (designed binder)
chain: B1 chain with Y18K, E19H, V22M, I32V
notes: as for B1
B21: Z14788 (designed binder)
chain: B1 chain with Y18K, E19A, V22N, I32V
notes: as for B1
B22: Z14829 (designed binder)
chain: B1 chain with Y18R, E19K, K26N, I32V
notes: as for B1
B23: Z14861 (designed binder)
chain: B1 chain with Y18R, E19K, V22I, K26N
notes: as for B1
B24: Z14862 (designed binder)
chain: B1 chain with Y18A, E19A, V22R, K26L
notes: as for B1
B25: Z14867 (designed binder)
chain: B1 chain with Y18A, E19I, V22H, K26V, I32V, M35I
notes: as for B1
B26: Z14868 (designed binder)
chain: B1 chain with V22Y, K26L, D33Q, T40S
notes: as for B1
B27: Z14878 (designed binder)
chain: B1 chain with E19H, K26N
notes: as for B1
B28: Z14888 (designed binder)
chain: B1 chain with Y18A, E19F, V22R, K26L
notes: as for B1
B29: Z14929 (designed binder)
chain: B1 chain with Y18K, V22Y, K26L, I32V, D33S
notes: as for B1
B30: Z14944 (designed binder)
chain: B1 chain with Y18R, E19K, V22Y, K26L
notes: as for B1
B31: Z14976 (designed binder)
chain: B1 chain with Y18R, E19K, V22Y, K26L, I32V, D33E
notes: as for B1
B32: Z14984 (designed binder)
chain: B1 chain with Y18K, E19Q, V22R, K26L
notes: as for B1
B33: Z14990 (designed binder)
chain: B1 chain with E19D, V22Y, K26T, I32V, T40S
notes: as for B1
B34: Z14992 (designed binder)
chain: B1 chain with Y18R, E19N, V22T, K26L, D33E
notes: as for B1
B35: Z15003 (designed binder)
chain: B1 chain with E19K, V22L, K26N, I32V
notes: as for B1
B36: Z15015 (designed binder)
chain: B1 chain with Y18R, E19D, V22W, K26A, I32V, D33E
notes: as for B1
B37: Z15024 (designed binder)
chain: B1 chain with V22M, K26L, I32V, D33E, M35I
notes: as for B1
B38: Z15025 (designed binder)
chain: B1 chain with Y18R, E19D, V22F, I32V
notes: as for B1
B39: Z15031 (designed binder)
chain: B1 chain with Y18A, E19Y, V22K, K26L, I32V
notes: as for B1
B40: Z15036 (designed binder)
chain: B1 chain with V22F, K26A, I32V, D33E
notes: as for B1
B41: Z15042 (designed binder)
chain: B1 chain with E19F, V22W, I32V, D33N
notes: as for B1
B42: Z15053 (designed binder)
chain: B1 chain with Y18K, E19Q, K26N, D33T
notes: as for B1
B43: Z15057 (designed binder)
chain: B1 chain with Y18Q, E19R, V22Y, K26I
notes: as for B1
B44: Z15067 (designed binder)
chain: B1 chain with Y18A, E19R, V22R, K26A
notes: as for B1
B45: Z15079 (designed binder)
chain: B1 chain with Y18R, E19Y, V22N, I32V
notes: as for B1
B46: Z15082 (designed binder)
chain: B1 chain with Y18A, E19K, V22Y, K26I, I32V, M35I
notes: as for B1
B47: Z15097 (designed binder)
chain: B1 chain with Y18A, E19R, V22H, K26I
notes: as for B1
B48: Z15102 (designed binder)
chain: B1 chain with Y18K, E19K, V22Y, K26L, D33E
notes: as for B1
B49: Z15110 (designed binder)
chain: B1 chain with Y18R, E19R, V22T, K26S
notes: as for B1
B50: Z15111 (designed binder)
chain: B1 chain with Y18A, E19R, V22T, K26L, I32V
notes: as for B1
B51: Z15117 (designed binder)
chain: B1 chain with Y18R, E19S, V22M, K26L, I32V
notes: as for B1
B52: Z15122 (designed binder)
chain: B1 chain with Y18R, E19H, V22Y, K26L, T40S
notes: as for B1
B53: Z15126 (designed binder)
chain: B1 chain with Y18R, E19N, V22Y, K26L, I32V, D33E
notes: as for B1
B54: Z15129 (designed binder)
chain: B1 chain with Y18R, V22F, K26I
notes: as for B1
B55: Z15140 (designed binder)
chain: B1 chain with V22T, K26L, D33E
notes: as for B1
B56: Z15141 (designed binder)
chain: B1 chain with K26N, D33T
notes: as for B1
B57: Z15142 (designed binder)
chain: B1 chain with Y18R, E19M, V22Y, K26S, I32V
notes: as for B1
B58: Z15145 (designed binder)
chain: B1 chain with E19K, V22H, K26I, I32V
notes: as for B1
B59: Z15151 (designed binder)
chain: B1 chain with Y18R, V22M, K26L
notes: as for B1
B60: Z15159 (designed binder)
chain: B1 chain with E19K, K26L, I32V, M35I
notes: as for B1
B61: Z15162 (designed binder)
chain: B1 chain with Y18K, E19I, V22Y, K26L, I32V, D33N, M35I
notes: as for B1
B62: Z15164 (designed binder)
chain: B1 chain with Y18A, E19Y, V22K, K26L, D33E, T40S
notes: as for B1

Target: T1, human IL-6 (human, UniProt P05231 30-212)
T1 construct: recombinant, bought (Peprotech 200-06; R&D Systems 206-IL/CF); biotinylated in the ELISAs; also called hIL-6; rhIL-6
Assay: ELISA, captured Z-ABD, biotin-hIL-6 titrated

Binder	EC50 [nM]
B1	0.31
B2	0.25
B3	0.23
B4	0.25
B5	0.24
B6	0.27
B7	0.23
B8	0.24
B9	0.23
B10	0.26
B11	0.26
B12	0.22
B13	0.32
B14	0.21
B15	0.28
B16	0.27
B17	0.24
B18	0.24
B19	0.24
B20	0.25
B21	0.3

Binder	EC50 [nM]
B22	0.27
B23	0.23
B24	0.22
B25	0.26
B26	0.28
B27	0.29
B28	0.22
B29	0.21
B30	0.19
B31	0.16
B32	0.16
B33	0.25
B34	0.28
B35	0.3
B36	0.18
B37	0.31
B38	0.21
B39	0.21
B40	0.24
B41	0.22
B42	0.24

Binder	EC50 [nM]
B43	0.23
B44	0.22
B45	0.21
B46	0.22
B47	0.22
B48	0.21
B49	0.2
B50	0.23
B51	0.21
B52	0.17
B53	0.15
B54	0.21
B55	0.21
B56	0.23
B57	0.16
B58	0.23
B59	0.19
B60	0.18
B61	0.18
B62	0.2
